Values joined by “and” are separate entries in the source; they are usually repeats but may differ in a detail not shown here. Identical values can stand only once. The list shows a part of the results. The main result of the screen is listed elsewhere. These columns were measured beside it and carry no call. Compounds called inactive in the main read-out are mostly missing here. Words in brackets tell the shape of the fitted curve; partial curves, single points and poor fits give uncertain potencies.

The assay in a line: qHTS Assay for Inhibitors of PDE-IV (AID 607). The settings on record: HEK293 ACTOne CNG channel cells, membrane potential fluorescence; measured here: parental cell counter-screen. The source says:
NIH Chemical Genomics Center [NCGC]
NIH Molecular Libraries Screening Centers Network [MLSCN]
The cyclic nucleotide phosphodiesterases (PDEs) are proteins that catalyze hydrolysis of 3', 5'-cyclic nucleotides, such as cyclic adenosine monophosphate (cAMP) and cyclic guanosine monophosphate (cGMP), to their corresponding 5'-nucleotide monophosphates. These enzymes play an important role in controlling cellular concentrations of cyclic nucleotides and have a central role in a variety of intracellular signaling events. cAMP PDEs are emerging as a promising class of drug targets in asthma and cardiovascular disease therapeutic areas.
There are no commercially available cell-based screening assays for PDE inhibitors: currently biochemical assays are done using pure substrates (cAMP or cGMP) and purified recombinant PDE enzymes. As with other biochemical screens on intracellular targets, false positives and false negatives may result from issues involving cell membrane permeability, cellular metabolism, and the like.
Here we report the development of a cell-based screening assay for cAMP phosphodiesterase (PDE) inhibitors. The assay is based on the BD ACTOne# technology (BD Biosciences) which utilizes a modified cyclic nucleotide-gated channel (CNG) to monitor intracellular cAMP changes in live cells. The CNG channel is localized on the plasma membrane, and opens when the intracellular cAMP level increases, resulting in ion flux and cell membrane depolarization. The influx of cations through the CNG channel can be quantified using membrane potential (MP) dyes. We modified the BD ACTOne technology to allow the detection of PDE inhibitors, and performed an inhibitor screen for PDE-IV, which is expressed endogenously in HEK293 cells. We optimized this assay in homogeneous 1536-well plate assay format for high throughput screening.
NCGC Assay Protocol Summary:
The medium contained 10% FBS (Invitrogen), 2 mM L-glutamine, and 250 ug/ml G418 (Cellgro) and 1 ug/ml puromycin (Clontech). ACTOneTM parental cells (BD Biosciences) were maintained in the same medium without puromycin.
The activity of the CNG channel was measured by BD ACTOneTM membrane potential dye kit (BD Biosciences). Forskolin, a positive control for cAMP activation and RO 20-1724, a PDE inhibitor, were both purchased from Sigma and solublized in DMSO.
Sequence,Parameter,Value,Description
1,Reagent,3 uL,1000 cells/well 1536 TC treated Black plate
3,Compound,0.5 uL,Kalypsys dispense RO 20-1724 100 uM final [A]
4,Reagent,3 uL,BD membrane potential dye
6,Compound,23 nL,Final concentration was 0.7nM to 22.9uM
8,Detector,EX 535 / EM 590 [B],Envision
Footnotes: [A] The stock 2 mM RO 20-1724 PDE inhibitor was made in 10 % DMSO. Parental cell line received 10 uM forskolin + 100 uM RO. [B] Envsion settings: Bottom Excitation 535/20 nm top emission 590/20, gain of 150 and 5 flashes per well.
Keywords: PDE, PDE-IV, cytotoxicity, flourescence, MLSMR, MLSCN, NIH Roadmap, qHTS, NCGC
As a reminder, the AC50 is the concentration at which the activity in the assay is half-maximal. As for `CCCCc1ccc(C(=O)O)nc1`, the half-maximal activity concentration (AC50) is 7.94 µM [rising, partial curve].

Turning to `c1ccc(CCCCN2CCC(c3ccccc3)CC2)cc1`, the AC50 was 10 µM [rising, partial curve]. As for `O=C1NCN(c2ccccc2)C12CCN(CCCOc1ccc(F)cc1)CC2`, the AC50 is 5.01 µM [rising, partial curve]. As to `CNC(=O)[C@@H]1C[C@H]1[C@@H](NP(=O)(c1ccccc1)c1ccccc1)c1ccccc1`, the AC50 was 0.631 µM [rising, single point]. With `COc1ccc(C(=O)c2c(C)n(CCN3CCOCC3)c3cc(I)ccc23)cc1` the figure was 12.6 µM [rising, partial curve]. To `Ic1ccccc1CN[C@@H]1C2CCN(CC2)[C@H]1C(c1ccccc1)c1ccccc1` belongs 15.8 µM [rising, partial curve]; to `C(=C/c1ccccc1)/CN1CCN(CCOC(c2ccccc2)c2ccccc2)CC1`, 15.8 µM [rising, partial curve]; to `c1ccc(N2CCCC3(CCNCC3)C2)nc1`, 10 µM [rising, single point]. Regarding `O=C1/C(=C\c2ccccc2)C[C@@]2(O)[C@H]3Cc4ccc(O)c5c4[C@@]2(CCN3CC2CC2)[C@@H]1O5`, the AC50 is 20 µM [rising, single point]. With `Cc1cccc([C@H](C)c2cnc[nH]2)c1C` the figure was 15.8 µM [rising, single point]. On to `CC(C)(Cc1c[nH]c2ccc(Cl)cc12)NCCOc1ccccc1OCC1CC1`, for which the AC50 was 25.1 µM [rising, single point]. As for `CN1[C@@H]2CC[C@H]1CC(O[C@@H](c1ccccc1)c1ccc(Cl)cc1)C2` (stereo not given in full), the concentration at half-maximal activity (AC50) was 10 µM [rising, partial curve]. To `Fc1ccc(C(OCCN2CCN(C/C=C\c3ccccc3)CC2)c2ccc(F)cc2)cc1` belongs 5.01 µM [rising, partial curve]; to `CCN(CC)CCO[C@H]1CC[C@@]2(C)C(=CC[C@@H]3[C@H]2CC[C@]2(C)C(=O)CC[C@H]32)C1`, 7.94 µM [rising, partial curve]. Consider `CCCN(CCC)[C@@H]1CCc2c(OC)cccc2[C@@H]1C`, for which the AC50 was 15.8 µM [rising, partial curve]. With `O=C(O)c1nn(Cc2ccc(Cl)cc2Cl)c2ccccc12` the figure was 15.8 µM [rising, partial curve].

`O=c1c2ccccc2[se]n1-c1ccccc1`: the AC50 is 6.31 µM [rising, partial curve, poor fit]. To `O=C(CCCN1CCC2(CC1)C(=O)NCN2c1ccccc1)c1ccc(F)cc1` belongs 15.8 µM [rising, partial curve, poor fit]; to `CCNC(=O)[C@@H]1O[C@@H](n2cnc3c(N)ncnc32)[C@@H](O)[C@H]1O`, 12.6 µM [rising, partial curve]. In the case of `C[C@@H]1O[C@H](O[C@H]2C[C@@H](O)[C@@]3(CO)[C@H]4[C@@H](O)C[C@]5(C)[C@@H](C6=CC(=O)OC6)CC[C@]5(O)[C@H]4CC[C@]3(O)C2)[C@@H](O)[C@H](O)[C@@H]1O`, the AC50 is 3.98 µM [rising, partial curve]. As to `CN[C@@H]1C[C@H](c2ccc(Cl)c(Cl)c2)c2ccccc21`, the AC50 was 25.1 µM [rising, single point].

As to `CCC1=C(C[C@H]2NCCc3cc(OC)c(OC)cc32)C[C@H]2c3ccccc3CCN2C1`, the AC50 was 3.98 µM [rising, single point]. With `Cc1c2ccncc2c(C)c2c1[nH]c1ccccc12` the figure was 1.26 µM [falling, full curve, poor fit]; with `CC1N(P(=O)(c2ccccc2)c2ccccc2)CC(O)(c2ccccc2)CC12CC2` (stereo not given), 6.31 µM [rising, partial curve]. To `O=C(Oc1ccccc1)N1CCC[C@@]2(CCN(Cc3nccs3)C2)C1` belongs 0.398 µM [rising, single point]. To `O=P(c1ccccc1)(c1ccccc1)N1CC2(CC2)CC(O)(c2ccccc2)C1` (stereo not given) belongs 6.31 µM [rising, partial curve]; to `CC(C)CN1CCC2(CC1)CCN(C(=O)Oc1ccccc1)CC2`, 3.98 µM [rising, single point]. On to `Cc1nc(-c2ccc(-c3ccc(C(=O)N4CCc5cc6c(cc54)C4(CCN(C)CC4)CO6)cc3)c(C)c2)no1`, for which the AC50 was 12.6 µM [rising, partial curve] and 15.8 µM [rising, partial curve]. `CCn1cc(C(=O)O)c(=O)c2ccc(C)nc21`: the half-maximal activity concentration (AC50) is 10 µM [rising, single point]. Take `C[C@H](N)[C@H](O)c1ccc(O)c(O)c1`: the AC50 was 12.6 µM [rising, partial curve, poor fit]. Consider `CN(C(=O)Cc1ccccc1)[C@H](CN1CCCC1)c1ccccc1`, for which the AC50 is 15.8 µM [rising, partial curve]. Regarding `COc1cc2c(c(OC)c1OC)-c1ccc(O)c(=O)cc1[C@@H](NC(C)=O)CC2`, the AC50 was 15.8 µM [rising, single point]. With `C/C(O)=C(/C#N)C(=O)Nc1cc(Br)ccc1Br` the figure was 20 µM [rising, single point].

Consider `Cc1cc(C)cc(C(=O)OC2C[C@H]3CC[C@@H](C2)N3C)c1` (stereo not given in full), for which the AC50 was 12.6 µM [rising, partial curve]. `CN1C[C@H](CNC(=O)OCc2ccccc2)C[C@H]2c3cccc4c3c(cn4C)C[C@@H]21`: the AC50 is 10 µM [rising, partial curve, poor fit] and 15.8 µM [rising, single point] and 15.8 µM [rising, partial curve, poor fit]. Take `COc1cccc2c1cc([N+](=O)[O-])c1c(C(=O)O)cc3c(c12)OCO3`: the AC50 was 12.6 µM [rising, partial curve]. `O=c1[nH]oc2c1CCNC2`: the AC50 was 0.000631 µM [rising, full curve, poor fit]. To `Cc1noc(C)c1C(=O)N1CCC2(CCCN(CC(C)C)C2)CC1` belongs 15.8 µM [rising, single point]; to `c1ccc(CCCN2CCN(CCOC(c3ccccc3)c3ccccc3)CC2)cc1`, 15.8 µM [rising, partial curve, poor fit]; to `CN1[C@@H]2CC[C@H]1CC(OC(c1ccc(F)cc1)c1ccc(F)cc1)C2` (stereo not given in full), 10 µM [rising, partial curve].

These data come from PubChem BioAssay (NCATS).
